Measured values as given in US8367682B2, “Pyrimidine derivatives and their use as pesticides” (Novartis AG, priority 2006, dated 2013).
Some entries share one result that the patent states for a list of compounds. For part of these data: At least one structure is not confirmed: it was looked up by name or label, or the drawing left a doubt.

Experiments:
Dermanyssus gallinae = test: Activity in vitro against Dermanyssus gallinae (chicken red mite), HTS; settings: at 200 ppm; female mites, 10 minutes contact, 5 days incubation
Rhipicephalus sanguineus = test: Activity in vitro against Rhipicephalus sanguineus (dog ticks), HTS; settings: at 640 ppm; adult ticks, 10 minutes contact, 7 days incubation
Experimental: 2. Activity in Vitro Against Rhipicephalus sanguineus (Dog Ticks)—HTS
A clean adult tick population is used to seed a suitably formatted 96-well plate containing the test substances to be evaluated for antiparasitic activity. Each compound is tested by serial dilution in order to determine its MED. Ticks are left in contact with the test compound for 10 minutes and are then incubated at 28° C. and 80% relative humidity (RH) for 7 days, during which the test compound's effect is monitored. Acaricidal activity is confirmed if and when adult ticks are dead.

Ctenocephalides felis = test: Activity in vitro against Ctenocephalides felis (cat flea), HTS, artificial blood feeding; settings: at 100 ppm; adult fleas fed on treated blood for 24 hours
Experimental: 3. Activity in Vitro Against Ctenocephalides felis (Cat Flea)—HTS
A mixed adult population of fleas is placed in a suitably formatted 96-well plate allowing fleas to access and feed on treated blood via an artificial feeding system. Each compound is tested by serial dilution in order to determine its MED. Fleas are fed on treated blood for 24 hours, after which the compound's effect is recorded. Insecticidal activity is determined on the basis of the number of dead fleas recovered from the feeding system.

Structure (SMILES)	efficacy in the HTS (Dermanyssus gallinae)	efficacy in the HTS (Rhipicephalus sanguineus)	insecticidal efficacy in the HTS (Ctenocephalides felis)
COc1cccc(-c2nc(Oc3ccc(F)c(C(F)(F)F)c3)c(N)c(Oc3ccc(F)c(C(F)(F)F)c3)n2)c1 [Compound 1.7]	more than 60%	more than 60%	more than 60%
Nc1c(Oc2ccc(F)c(C(F)(F)F)c2)nc(-c2cc(Cl)cc(Cl)c2)nc1Oc1ccc(F)c(C(F)(F)F)c1 [Compound 1.8]	more than 60%	–	–
Nc1c(Oc2ccc(F)c(C(F)(F)F)c2)nc(-c2cccc(N3CCOCC3)c2)nc1Oc1ccc(F)c(C(F)(F)F)c1 [Compound 1.30]	more than 60%	more than 60%	–
